These are yes or no findings as the source states them, for the method shown. In cells and extracts the contact can be indirect. These calls come from enrichment with a bait or labelling near it, and not all partners need be listed.
Molecular target: YFP-B56α WT (human) (UniProt Q15172)
Assay: affinity purification with mass spectrometry; NIH3T3 stably expressing CIP2A(1-905)V5 or empty vector, transfected with YFP-B56α; GFP-Trap, washes up to 300 mM NaCl, on-bead trypsin, LC-MS/MS; three replicates each

Sequences of proteins named here, by UniProt entry; tags and fusion partners are left off.
UniProt Q15172: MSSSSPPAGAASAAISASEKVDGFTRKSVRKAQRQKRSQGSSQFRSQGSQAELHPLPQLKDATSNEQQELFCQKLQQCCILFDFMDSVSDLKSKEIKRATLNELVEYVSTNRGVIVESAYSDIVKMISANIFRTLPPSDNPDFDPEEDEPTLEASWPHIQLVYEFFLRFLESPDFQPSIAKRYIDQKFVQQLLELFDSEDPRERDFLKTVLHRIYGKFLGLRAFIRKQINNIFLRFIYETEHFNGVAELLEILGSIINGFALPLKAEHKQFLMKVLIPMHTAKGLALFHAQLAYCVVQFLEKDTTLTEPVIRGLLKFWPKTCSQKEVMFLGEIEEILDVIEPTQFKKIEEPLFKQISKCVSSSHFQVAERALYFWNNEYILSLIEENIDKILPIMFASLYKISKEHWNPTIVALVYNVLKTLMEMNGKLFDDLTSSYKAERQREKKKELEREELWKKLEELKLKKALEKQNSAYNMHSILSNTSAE
UniProt Q76MZ3: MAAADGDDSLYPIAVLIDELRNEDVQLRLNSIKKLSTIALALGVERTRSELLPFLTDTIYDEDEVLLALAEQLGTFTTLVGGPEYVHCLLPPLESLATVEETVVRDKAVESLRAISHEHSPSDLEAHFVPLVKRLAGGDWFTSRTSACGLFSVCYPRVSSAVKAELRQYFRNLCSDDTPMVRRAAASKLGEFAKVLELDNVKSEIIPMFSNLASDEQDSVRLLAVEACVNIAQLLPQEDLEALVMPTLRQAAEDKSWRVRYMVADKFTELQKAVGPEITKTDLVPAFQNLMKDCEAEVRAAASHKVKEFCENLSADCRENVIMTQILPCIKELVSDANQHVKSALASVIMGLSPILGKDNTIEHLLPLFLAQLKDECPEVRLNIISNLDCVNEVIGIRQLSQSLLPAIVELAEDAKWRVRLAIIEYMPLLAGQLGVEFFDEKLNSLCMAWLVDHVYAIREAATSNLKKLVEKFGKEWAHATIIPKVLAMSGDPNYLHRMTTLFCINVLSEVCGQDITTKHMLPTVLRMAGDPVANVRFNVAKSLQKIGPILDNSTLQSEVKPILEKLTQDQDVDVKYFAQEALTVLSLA

- binding: binds
Substance: endogenous A-subunit (PPP2R1A) of NIH3T3 cells (from UniProt Q76MZ3 1-589)

— PMC9974998
